One substance from article doi:10.1101/2023.10.07.561349 can be followed below.

Protein sequences, listed by entry. Tags and fused reporters are not part of them.
UniProt P08047: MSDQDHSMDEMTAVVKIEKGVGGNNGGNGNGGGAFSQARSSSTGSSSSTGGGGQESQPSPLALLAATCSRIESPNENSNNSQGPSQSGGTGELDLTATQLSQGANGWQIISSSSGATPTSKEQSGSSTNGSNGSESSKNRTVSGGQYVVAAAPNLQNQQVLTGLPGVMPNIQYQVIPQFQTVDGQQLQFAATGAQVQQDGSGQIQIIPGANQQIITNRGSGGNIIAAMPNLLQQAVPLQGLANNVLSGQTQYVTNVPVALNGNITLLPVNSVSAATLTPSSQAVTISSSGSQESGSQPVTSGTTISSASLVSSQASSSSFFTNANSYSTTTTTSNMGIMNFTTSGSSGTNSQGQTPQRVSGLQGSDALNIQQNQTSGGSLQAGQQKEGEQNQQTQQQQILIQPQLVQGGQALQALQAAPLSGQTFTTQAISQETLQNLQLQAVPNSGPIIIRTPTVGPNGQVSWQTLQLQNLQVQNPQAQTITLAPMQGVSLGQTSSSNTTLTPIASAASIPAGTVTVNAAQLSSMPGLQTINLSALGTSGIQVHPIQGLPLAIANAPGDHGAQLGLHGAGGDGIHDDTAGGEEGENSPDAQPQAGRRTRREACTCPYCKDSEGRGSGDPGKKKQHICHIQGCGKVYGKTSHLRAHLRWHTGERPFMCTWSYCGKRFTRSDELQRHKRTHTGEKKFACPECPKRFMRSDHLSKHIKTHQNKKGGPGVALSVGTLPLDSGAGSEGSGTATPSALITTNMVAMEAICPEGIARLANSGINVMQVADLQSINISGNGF
UniProt P84022: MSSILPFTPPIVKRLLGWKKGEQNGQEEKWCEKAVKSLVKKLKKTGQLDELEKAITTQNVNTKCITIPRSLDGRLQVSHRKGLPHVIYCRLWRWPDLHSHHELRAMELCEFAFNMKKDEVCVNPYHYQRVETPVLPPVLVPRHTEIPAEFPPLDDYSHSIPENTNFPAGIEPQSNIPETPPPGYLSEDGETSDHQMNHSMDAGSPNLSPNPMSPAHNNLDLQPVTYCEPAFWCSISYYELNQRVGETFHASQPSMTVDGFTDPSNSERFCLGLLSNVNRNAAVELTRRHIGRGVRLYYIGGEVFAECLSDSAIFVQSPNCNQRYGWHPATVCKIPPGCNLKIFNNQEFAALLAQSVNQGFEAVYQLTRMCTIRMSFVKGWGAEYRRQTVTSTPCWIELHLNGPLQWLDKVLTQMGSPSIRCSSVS

Results are given in words; binding and its absence hold for the method and conditions named. Binding seen in cells or lysates may run through a third protein. Some results given as binding are weak or reduced against the parent protein; the word gives no strength.

The test deals with SP1 (human (endogenous in THP-1)) (UniProt P08047). Nature of the test: proximity ligation.

For SMAD3 (from UniProt P84022 1-425), the binding result is listed as “binds”.
